{
  "sequences": {"note": "Sequences of proteins named here, by UniProt entry; tags and fusion partners are left off. A change or cut given only in a name is not applied to a line headed by its entry.", "UniProt P51450": "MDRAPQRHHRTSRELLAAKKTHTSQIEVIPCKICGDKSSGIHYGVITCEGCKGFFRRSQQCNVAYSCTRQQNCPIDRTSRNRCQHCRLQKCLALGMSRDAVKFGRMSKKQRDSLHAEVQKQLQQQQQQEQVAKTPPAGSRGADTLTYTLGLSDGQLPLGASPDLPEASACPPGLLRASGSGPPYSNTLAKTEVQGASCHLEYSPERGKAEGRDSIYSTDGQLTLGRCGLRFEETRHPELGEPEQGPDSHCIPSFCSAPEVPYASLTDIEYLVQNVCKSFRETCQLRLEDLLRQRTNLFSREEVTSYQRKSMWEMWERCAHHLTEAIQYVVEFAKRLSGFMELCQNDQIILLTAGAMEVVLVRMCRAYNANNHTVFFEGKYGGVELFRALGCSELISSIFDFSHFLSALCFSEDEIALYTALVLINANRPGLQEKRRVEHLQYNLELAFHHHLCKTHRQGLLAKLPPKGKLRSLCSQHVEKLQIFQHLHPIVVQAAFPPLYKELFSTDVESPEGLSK"},
  "source": "PubChem BioAssay AID2551",
  "about": "(National Center for Advancing Translational Sciences (NCATS), 2010)",
  "note": "Hit rate of the full screen: of about 310,000 compounds, about 17,000 (5.5%) were called active. Inconclusive means that the source gave no clear call. Such entries were picked first, then a sample of the others. The call rests on the fitted dose curve; in most records, active means well fitted inhibition curve with a large enough effect; inconclusive means small, poorly fitted or top-dose-only effect, or effect the other way; inactive means no such curve, though single readings can be large or run the other way. Where the call is inconclusive, the potency comes from a doubtful curve fit. On the % scale 0 is the no-effect control and ±100 the full control effect; potency means the concentration at half of the fitted maximal effect.",
  "data": [
    {"target": "Nuclear receptor ROR-gamma (Mus musculus) (UniProt P51450)", "assay": "qHTS for inhibitors of ROR gamma transcriptional activity; further: nearly all actives have a fitted effect of over 60% in size", "settings": "Drosophila S2 Gal4-RORgamma UAS-luciferase reporter, 20 h; activity change, negative = inhibition: at 53.6 µM (top of the series)", "summary_of_the_method": "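ROR gamma transcriptional activity was tracked as Gal4-UAS luciferase output in stably transfected Drosophila Schneider cells, with compound added 1 hr before 700 uM copper sulfate induction and a 20 hr ambient-temperature incubation.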", "values": [
      {"smiles": "COCCNS(=O)(=O)c1cc(OC)ccc1OC", "activity change, negative = inhibition": "inactive: 0.573%"},
      {"smiles": "O=C(Cc1csc(-c2ccccc2)n1)NCc1ccc(F)cc1", "Potency": "inconclusive: 2.82 µM [activator, full curve, poor fit]"},
      {"smiles": "O=C(Nc1ccc(F)cc1)c1ccc(Br)c(S(=O)(=O)N2CCOCC2)c1", "Potency": "inconclusive: 22.4 µM [activator, single point]"},
      {"smiles": "C/C(=N\\Nc1nc2ccccc2s1)c1ccc2c(c1)OCO2", "Potency": "inconclusive: 17.8 µM [inhibitor, single point]"},
      {"smiles": "CCN(CC)CC(O)Cn1c(C)c(-c2ccccc2)c2cc([N+](=O)[O-])ccc21", "note": "(stereo unspecified)", "Potency": "inconclusive: 25.1 µM [inhibitor, single point]"},
      {"smiles": "CN1/C(=C\\C(=O)CSc2nnc(N)s2)C(C)(C)c2ccccc21", "Potency": "inconclusive: 12.6 µM [activator, partial curve]"},
      {"smiles": "CCOC(=O)c1[nH]c(C)c(C(=O)Nc2ccc3c(c2)CCC3)c1C", "Potency": "inconclusive: 35.5 µM [inhibitor, single point]"},
      {"smiles": "COc1ccc(-n2nc3c(N4CCC(C(=O)NCCc5ccco5)CC4)nnc(C)c3c2C)cc1", "activity change, negative = inhibition": "inactive: 5.54%"},
      {"smiles": "Oc1csc(Cc2nc(-c3ccc(-c4ccccc4)cc3)cs2)n1", "Potency": "inconclusive: 14.1 µM [inhibitor, partial curve, poor fit]"},
      {"smiles": "O=C1CN(c2ccc(Cl)cc2)C2(CCCCC2)S1", "Potency": "inconclusive: 35.5 µM [activator, single point]"},
      {"smiles": "Oc1ccc(/C=N/NC(=S)Nc2cccnc2)cc1O", "Potency": "active: 8.91 µM"},
      {"smiles": "Cc1ccc(C(=O)c2ccccc2C(=O)O)c(O)c1", "activity change, negative = inhibition": "inactive: 1.43%"},
      {"smiles": "CS(=O)(=O)N1CCN(c2ccc(C(=O)NC34CC5CC(CC(C5)C3)C4)cc2[N+](=O)[O-])CC1", "Potency": "inconclusive: 20 µM [activator, single point]"},
      {"smiles": "Cc1ccc(C)c(N2CCN(C(=O)CCCn3ncn4c(cc5occc54)c3=O)CC2)c1", "activity change, negative = inhibition": "inactive: 3.5%"},
      {"smiles": "CCN(CC)CCOC(=O)C12CC3CC(CC(C3)C1)C2", "Potency": "active: 5.01 µM"},
      {"smiles": "NC(=O)CC(NC(=O)c1ccc(Br)cc1)c1ccc(NCc2ccc(F)c(F)c2)c([N+](=O)[O-])c1", "note": "(stereo unspecified)", "Potency": "inconclusive: 12.6 µM [activator, single point]"},
      {"smiles": "S=C(NCCCc1ccccc1)Nc1ccc(Br)cc1", "Potency": "active: 8.91 µM"},
      {"smiles": "O=C(CCN1CCCC1=O)NC1CCCc2c1cnn2-c1ccc(F)cc1F", "note": "(stereo unspecified)", "Potency": "inconclusive: 5.01 µM [activator, full curve, poor fit]"},
      {"smiles": "O=S(=O)(/C(=C/c1ccc(C(F)(F)F)cc1)c1nc2ccccc2[nH]1)c1ccccc1", "Potency": "active: 14.1 µM"},
      {"smiles": "COc1ccccc1CNC(=O)C(=O)Nc1ccc(C(=O)N2CCC(C)CC2)cc1", "activity change, negative = inhibition": "inactive: 3.86%"},
      {"smiles": "CCOC(=O)C1CCN(c2c(C(=O)c3ccccc3)cnc3ccc(CC)cc23)CC1", "activity change, negative = inhibition": "inactive: 1.21%"},
      {"smiles": "CC1(C)C2CCC1(C)C(OC(=O)CCn1ccnc1)C2", "note": "(stereo unspecified)", "Potency": "active: 11.2 µM"},
      {"smiles": "CCOC(=O)c1sc(NC(=O)CSc2nc(C)cc(-c3ccccc3)n2)c(C#N)c1C", "activity change, negative = inhibition": "inactive: -18.2%"},
      {"smiles": "CCOc1cc(C(=O)Nc2ccc3c(c2)OCO3)ccc1OC(F)F", "Potency": "inconclusive: 17.8 µM [activator, single point]"},
      {"smiles": "CC1C/C(=N\\NC(=O)c2cccnc2)CC(C)(C)C1", "note": "(stereo unspecified)", "activity change, negative = inhibition": "inactive: -18.7%"},
      {"smiles": "O=C(NC(=O)c1ccccc1)NC1(C(F)(F)F)OCCO1", "Potency": "inconclusive: 0.112 µM [activator, full curve, poor fit]"},
      {"smiles": "CCN(CC)CCOC(=O)c1ccc(NC(=O)c2ccc(Cl)c(S(=O)(=O)N3CCCCCC3)c2)cc1", "Potency": "inconclusive: 35.5 µM [inhibitor, single point]"},
      {"smiles": "COc1ccc(C(=O)SC2=NCCS2)cc1", "Potency": "inconclusive: 35.5 µM [activator, single point]"},
      {"smiles": "COC(=O)C1=C(C)N(Cc2ccco2)C(=O)N[C@@H]1c1cccc(C(F)(F)F)c1", "Potency": "inactive"},
      {"smiles": "O=C(c1ccc(F)cc1F)N1CCCC(c2nc(-c3ccc(F)cc3)no2)C1", "note": "(stereo unspecified)", "Potency": "inconclusive: 22.4 µM [activator, partial curve]"},
      {"smiles": "CCN(CC)S(=O)(=O)c1ccc(C(=O)NCCOC(=O)c2ccc(F)cc2F)cc1", "activity change, negative = inhibition": "inactive: 15.6%"},
      {"smiles": "CCn1nc(C)cc1C(=O)Sc1cccc(Cl)c1", "Potency": "inconclusive: 35.5 µM [inhibitor, single point]"},
      {"smiles": "O=C(NNS(=O)(=O)c1ccccc1)c1ccc([N+](=O)[O-])cc1", "activity change, negative = inhibition": "inactive: 0.567%"},
      {"smiles": "OCCCNc1c2ccccc2nc2ccccc12", "Potency": "inconclusive: 14.1 µM [inhibitor, single point]"},
      {"smiles": "CN(C(=O)c1cc(S(=O)(=O)N2CCc3ccccc32)cn1C)C1CCCCC1", "Potency": "inconclusive: 11.2 µM [activator, partial curve]"},
      {"smiles": "CCNC(=S)NNC(=O)c1nn(C)c(C)c1Cl", "Potency": "inconclusive: 7.94 µM [inhibitor, partial curve]"},
      {"smiles": "CCOc1ccc(C(C)NC(=S)NCc2ccc(F)cc2)cc1", "note": "(stereo unspecified)", "Potency": "active: 3.55 µM"},
      {"smiles": "O=C1C2C3C=CC(CO)(O3)C2C(=O)N1c1ccc(-c2ccccc2)cc1", "note": "(stereo unspecified)", "Potency": "active: 6.31 µM"},
      {"smiles": "c1ccc2c(Oc3ccc4c(c3)OCO4)nncc2c1", "Potency": "inconclusive: 31.6 µM [inhibitor, single point]"},
      {"smiles": "O=C(NCC12CC3CC(CC(C3)C1)C2)c1cc2n(n1)C(C(F)(F)F)CC(c1ccco1)N2", "note": "(stereo unspecified)", "Potency": "inconclusive: 35.5 µM [activator, single point]"},
      {"smiles": "CSc1ncccc1C(=O)Nc1nccs1", "Potency": "active: 10 µM"},
      {"smiles": "FC(F)(F)c1cccc(NC(=S)NNC(=S)Nc2cccc(C(F)(F)F)c2)c1", "activity change, negative = inhibition": "inactive: -11.8%"},
      {"smiles": "CNc1nc(SCc2ccccc2Cl)nc2c1CCCC2", "Potency": "inconclusive: 35.5 µM [inhibitor, single point]"},
      {"smiles": "O=NN(CCc1ccncc1)c1ccc(OCc2ccccc2)cc1", "Potency": "active: 7.08 µM"},
      {"smiles": "Cc1c(NC(=O)Nc2ccc3c(c2)OCO3)cccc1[N+](=O)[O-]", "activity change, negative = inhibition": "inactive: -1.68%"},
      {"smiles": "COc1ccc(CN2CC(C(=O)NCCc3ccc(C)cc3)CC2=O)cc1", "note": "(stereo unspecified)", "activity change, negative = inhibition": "inactive: 14.8%"},
      {"smiles": "Cc1c(C(=O)O)sc2nc(/C=C/c3cccc(O)c3)[nH]c(=O)c12", "activity change, negative = inhibition": "inactive: -9.94%"},
      {"smiles": "CCCC(=O)Nc1cccc(-c2nc3ccccc3c(=O)o2)c1", "Potency": "inconclusive: 20 µM [inhibitor, single point]"},
      {"smiles": "COC(=O)c1c(-c2ccc(C)cc2)csc1NC(=O)C1CC=CCC1C(=O)O", "note": "(stereo unspecified)", "Potency": "inconclusive: 1.26 µM [activator, full curve, poor fit]"},
      {"smiles": "CNC(=S)Nc1ccc(OCc2ccccc2)cc1", "Potency": "active: 3.98 µM"},
      {"smiles": "CCOC(=O)N1CCN(c2nc(-c3cccc(OC)c3)cc(C(F)(F)F)n2)CC1", "activity change, negative = inhibition": "inactive: 10.6%"},
      {"smiles": "CCCCNC(=O)COC(=O)c1ccc(F)cc1Cl", "Potency": "inconclusive: 35.5 µM [activator, single point]"},
      {"smiles": "Cc1c(Cl)cccc1NC(=O)c1nc(C)n(-c2cc(OC(C)C)c(Cl)cc2Cl)n1", "Potency": "inconclusive: 11.2 µM [activator, partial curve]"},
      {"smiles": "CC(=O)c1cccc(NC(=O)c2cnn(-c3ccccc3)c2C)c1", "Potency": "active: 3.55 µM"},
      {"smiles": "Clc1ccccc1C1SCC2Nc3ccccc3CN21", "note": "(stereo unspecified)", "Potency": "inconclusive: 35.5 µM [inhibitor, single point]"},
      {"smiles": "CCN(CC(=O)NC(C)(C)C)C(=O)c1ccccc1SCC(=O)NC1CCCCCCC1", "activity change, negative = inhibition": "inactive: 2.33%"},
      {"smiles": "CN(Cc1ccccc1)C(=O)COC(=O)C1CCN(S(=O)(=O)c2cccs2)CC1", "activity change, negative = inhibition": "inactive: -1.71%"},
      {"smiles": "COc1ccc(/C=N/NC(=O)C(=O)/C=C2\\NC3(CCCC3)Cc3ccccc32)cc1", "activity change, negative = inhibition": "inactive: 24.8%"},
      {"smiles": "Brc1ccc(/C=N/Nc2ccccn2)cc1", "Potency": "inconclusive: 35.5 µM [inhibitor, single point]"},
      {"smiles": "Cc1sc2ncnc(OCC(=O)NCc3cccs3)c2c1C", "Potency": "inconclusive: 3.98 µM [activator, full curve]"},
      {"smiles": "O=C(c1ccccc1C(F)(F)F)N1CCN(S(=O)(=O)c2ccccc2)CC1", "activity change, negative = inhibition": "inactive: 10.3%"},
      {"smiles": "CCCCC#Cc1ccccc1CC(=O)Nc1ccccc1", "Potency": "inconclusive: 20 µM [activator, single point]"},
      {"smiles": "O=C(c1ccc(Oc2ccc(C(F)(F)F)cc2[N+](=O)[O-])cc1)N1CCOCC1", "Potency": "inconclusive: 12.6 µM [activator, partial curve]"},
      {"smiles": "O=C(CSc1ccc(-c2ccccc2)nn1)NCc1ccco1", "Potency": "inconclusive: 31.6 µM [activator, single point]"},
      {"smiles": "Cc1ccc(C2=NC(C(F)(F)F)(C(F)(F)F)c3c(n(-c4ccc(F)cc4)c(=O)[nH]c3=O)N2)cc1", "Potency": "inconclusive: 11.2 µM [activator, partial curve]"},
      {"smiles": "O=C(NNC(=O)c1ccccc1F)c1ccc2nc[nH]c2c1", "Potency": "inconclusive: 35.5 µM [inhibitor, single point]"},
      {"smiles": "O=C(NCCC1=CCCCC1)c1cc2ccccc2oc1=O", "activity change, negative = inhibition": "inactive: 1.29%"},
      {"smiles": "COCCn1c(SCC(=O)Nc2ccc3c(c2)CCC3)nc2ccccc2c1=O", "Potency": "inconclusive: 31.6 µM [activator, single point]"},
      {"smiles": "COC(=O)c1cccc(COC(=O)c2ccc(N(C)C)cc2)c1", "Potency": "inconclusive: 3.16 µM [activator, single point]"},
      {"smiles": "Cc1cc(=O)oc2c(O)c(O)ccc12", "Potency": "inconclusive: 12.6 µM [inhibitor, partial curve]"},
      {"smiles": "CC(C)[C@H](NC(=O)c1ccccc1Cl)C(=O)Nc1nc(-c2ccccn2)cs1", "Potency": "active: 7.94 µM"},
      {"smiles": "O=C(N/N=C/c1nn(-c2ccccc2)cc1-c1ccccc1)c1ccncc1", "Potency": "active: 1.58 µM"},
      {"smiles": "CC(=O)N1CCC2(CC1)C/C(=N\\NC(=S)Nc1ccc(C)cc1)c1cc(O)ccc1O2", "Potency": "active: 10 µM"},
      {"smiles": "COc1ccc(NC(=S)Nc2ccc(Oc3ccccc3)cc2)cc1", "activity change, negative = inhibition": "inactive: 10.6%"},
      {"smiles": "CC(C)CC(=O)NC(NC(=S)Nc1sc2c(c1C#N)CCCC2)C(Cl)(Cl)Cl", "note": "(stereo unspecified)", "Potency": "active: 10 µM"},
      {"smiles": "O=C(CCl)N(CCc1ccccc1)CCc1ccccc1", "Potency": "inconclusive: 35.5 µM [inhibitor, single point]"}
    ]}
  ]
}
